Measurements from publication PMC10704431, “A complex with poly(A)-binding protein and EWS facilitates the transcriptional function of oncogenic ETS transcription factors in prostate cells” (The Journal of Biological Chemistry, 2023).

Target: His-ERG (purified full-length ERG)
Assay: pull-down; purified His-tagged protein (ERG, other ETS factors or PABPC1) on nickel / His isolation magnetic beads; purified GST-tagged protein added; NP-40 lysis buffer (50 mM Tris-HCl pH 7.4, 250 mM NaCl, 5 mM EDTA, 50 mM NaF, 1% NP-40) with BSA, 4 °C, 2 h; immunoblot; both purified

binding: binds
B1: GST-EWS 1 to 355 (ntEWS) (domain or fragment, UniProt Q01844 1-355)
chain: MASTDYSTYSQAAAQQGYSAYTAQPTQGYAQTTQAYGQQSYGTYGQPTDVSYTQAQTTATYGQTAYATSYGQPPTGYTTPTAPQAYSQPVQGYGTGAYDTTTATVTTTQASYAAQSAYGTQPAYPAYGQQPAATAPTRPQDGNKPTETSQPQSSTGGYNQPSLGYGQSNYSYPQVPGSYPMQPVTAPPSYPPTSYSSTQPTSYDQSSYSQQNTYGQPSSYGQQSSYGQQSSYGQQPPTSYPPQTGSYSQAPSQYSQQSSSYGQQSSFRQDHPSSMGVYGQESGGFSGPGENRSMSGPDNRGRGRGGFDRGGMSRGGRGGGRGGMGSAGERGGFNKPGGPMDEGPDLDLGPPVDPD

Results are given in words; binding and its absence hold for the method and conditions named. A result given as binding can be weak or reduced; the word gives no strength. Sequences can lack the tags named with a protein.
